PubChem BioAssay AID743454 – Peter MacCallum Cancer Centre | 2014

Purpose: 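Search for knock-downs that restore vorinostat killing in resistant colon cancer cells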 (primary screen)
Cells: human HCT116-VR colon cancer cells, selected for vorinostat resistance
Knock-down reagent: siRNA pool against human genes, 40 nM siRNA pool
Duration: vorinostat for 24 h, read-out about 72 h after transfection
Challenge: vorinostat at 2.5 µM final
Measured: 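Two measures, CellTiter-Fluor viability and luminescent caspase 3/7 activity, each as fold change against same-plate mock wells, mean of duplicates, then screen-wide robust z-score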
Direction: viability robust z-score: higher = more viable cells than screen typical; caspase robust z-score: higher = more caspase 3/7 activity than screen typical
Hit rule: 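a knock-down is a hit when classed RV1 or RV2 for lowered viability, or CA1 or CA2 for caspase activation; those lethal without drug were dropped; hits were retested singly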
Here is one part, drawn at random, of about 18,000 reagents. 450 of all reagents (2.5%) count as active. 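Single biological run; no consistent viability z cut-off exists, so the class columns, not z-scores, define the calls.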

ZMYND12 (GeneID 84217)
- viability hit class: no change
- caspase hit class: no change
- viability robust z-score: -0.1
- caspase robust z-score: 1.52
- outcome: inactive

OMA1 (GeneID 115209)
- viability hit class: no change
- caspase hit class: no change
- viability robust z-score: -1.42
- caspase robust z-score: 0.44
- outcome: inactive

TOMM70 (GeneID 9868)
- viability hit class: no change
- caspase hit class: CA2 (caspase activation)
- viability robust z-score: 0.12
- caspase robust z-score: 5.16
- outcome: active

DIRAS1 (GeneID 148252)
- viability hit class: no change
- caspase hit class: no change
- viability robust z-score: 0.14
- caspase robust z-score: 2.57
- outcome: inactive

GDAP1 (GeneID 54332)
- viability hit class: no change
- caspase hit class: no change
- viability robust z-score: 0.86
- caspase robust z-score: -0.32
- outcome: inactive

NPHS1 (GeneID 4868)
- viability hit class: no change
- caspase hit class: no change
- viability robust z-score: -0.07
- caspase robust z-score: -0.34
- outcome: inactive

MARCO (GeneID 8685)
- viability hit class: no change
- caspase hit class: no change
- viability robust z-score: -1.28
- caspase robust z-score: 0.1
- outcome: inactive

LGI3 (GeneID 203190)
- viability hit class: no change
- caspase hit class: no change
- viability robust z-score: 0.25
- caspase robust z-score: 0
- outcome: inactive

PHACTR1 (GeneID 221692)
- viability hit class: no change
- caspase hit class: no change
- viability robust z-score: -0.26
- caspase robust z-score: -0.45
- outcome: inactive

CCDC87 (GeneID 55231)
- viability hit class: no change
- caspase hit class: no change
- viability robust z-score: -1.01
- caspase robust z-score: -1.13
- outcome: inactive

NXPH3 (GeneID 11248)
- viability hit class: no change
- caspase hit class: no change
- viability robust z-score: -1.63
- caspase robust z-score: 0.89
- outcome: inactive

XKR3 (GeneID 150165)
- viability hit class: no change
- caspase hit class: no change
- viability robust z-score: -1.11
- caspase robust z-score: -0.72
- outcome: inactive

GLRA4 (GeneID 441509)
- viability hit class: no change
- caspase hit class: no change
- viability robust z-score: -0.43
- caspase robust z-score: 1.25
- outcome: inactive

NBEA (GeneID 26960)
- viability hit class: no change
- caspase hit class: no change
- viability robust z-score: -0.76
- caspase robust z-score: -0.65
- outcome: inactive

LILRB4 (GeneID 11006)
- viability hit class: no change
- caspase hit class: no change
- viability robust z-score: 0.72
- caspase robust z-score: -0.09
- outcome: inactive

LIPM (GeneID 340654)
- viability hit class: no change
- caspase hit class: no change
- viability robust z-score: -0.24
- caspase robust z-score: -0.66
- outcome: inactive

DNAJC22 (GeneID 79962)
- viability hit class: no change
- caspase hit class: no change
- viability robust z-score: -1.16
- caspase robust z-score: 0.79
- outcome: inactive

NPHP3 (GeneID 27031)
- viability hit class: no change
- caspase hit class: no change
- viability robust z-score: -0.04
- caspase robust z-score: 1.23
- outcome: inactive

B3GNT4 (GeneID 79369)
- viability hit class: no change
- caspase hit class: no change
- viability robust z-score: 0.97
- caspase robust z-score: 0.22
- outcome: inactive

DCUN1D4 (GeneID 23142)
- viability hit class: no change
- caspase hit class: no change
- viability robust z-score: -1.2
- caspase robust z-score: 2.82
- outcome: inactive

TMEM147 (GeneID 10430)
- viability hit class: no change
- caspase hit class: no change
- viability robust z-score: -0.73
- caspase robust z-score: -0.92
- outcome: inactive

Reagents listed above called active, once more:
TOMM70 (GeneID 9868)
- viability hit class: no change
- caspase hit class: CA2 (caspase activation)
- viability robust z-score: 0.12
- caspase robust z-score: 5.16
- outcome: active
